We go through 2 molecules from PMC3157352.

Amino acid sequences for entries named in this document (tags omitted).
UniProt Q9NS91: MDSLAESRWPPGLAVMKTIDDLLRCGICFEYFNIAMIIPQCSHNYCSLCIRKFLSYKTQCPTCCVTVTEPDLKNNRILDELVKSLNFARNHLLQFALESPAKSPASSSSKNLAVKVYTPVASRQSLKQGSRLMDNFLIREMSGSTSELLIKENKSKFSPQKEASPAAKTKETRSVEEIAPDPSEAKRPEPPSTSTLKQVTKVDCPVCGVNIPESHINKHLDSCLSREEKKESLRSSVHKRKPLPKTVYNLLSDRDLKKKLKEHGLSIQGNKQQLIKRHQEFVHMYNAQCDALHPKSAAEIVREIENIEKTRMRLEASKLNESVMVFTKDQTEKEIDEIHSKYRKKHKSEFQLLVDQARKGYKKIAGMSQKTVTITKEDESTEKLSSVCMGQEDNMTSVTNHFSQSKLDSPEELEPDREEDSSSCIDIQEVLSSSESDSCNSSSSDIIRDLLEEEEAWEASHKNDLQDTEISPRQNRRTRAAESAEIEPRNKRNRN

These are yes or no findings as the source states them, for the method shown. Some entries that bind do so weakly or less than the wild type. Where a sequence is shown, tags or fusion partners need not be part of it.

The target of experiment [1] is human RAD18, yeast two-hybrid fusion (human) (UniProt Q9NS91). Description: two-hybrid; S. cerevisiae AH109, pGADT7 (Gal4 activation domain) and pGBKT7 (Gal4 binding domain) fusions; spot assay on SD-L-W-H and SD-L-W-H-A; RAD18 against the 9-1-1 components also with DNA damage (50 Gy IR, HU, MMS, CPT).
The target of experiment [2] is T1, human HUS1, yeast two-hybrid fusion (human) (UniProt O60921).
T1 sequence: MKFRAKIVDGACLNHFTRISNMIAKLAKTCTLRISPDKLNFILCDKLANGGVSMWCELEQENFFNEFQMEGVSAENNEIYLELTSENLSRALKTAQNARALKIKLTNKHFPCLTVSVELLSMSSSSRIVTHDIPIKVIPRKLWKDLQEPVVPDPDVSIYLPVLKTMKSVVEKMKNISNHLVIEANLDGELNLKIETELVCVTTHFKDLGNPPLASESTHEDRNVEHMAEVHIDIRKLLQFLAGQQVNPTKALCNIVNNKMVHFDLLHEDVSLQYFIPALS
The experiment is described as above.

B1: human HUS1, yeast two-hybrid fusion (protein, UniProt O60921 1-280)
chain: MKFRAKIVDGACLNHFTRISNMIAKLAKTCTLRISPDKLNFILCDKLANGGVSMWCELEQENFFNEFQMEGVSAENNEIYLELTSENLSRALKTAQNARALKIKLTNKHFPCLTVSVELLSMSSSSRIVTHDIPIKVIPRKLWKDLQEPVVPDPDVSIYLPVLKTMKSVVEKMKNISNHLVIEANLDGELNLKIETELVCVTTHFKDLGNPPLASESTHEDRNVEHMAEVHIDIRKLLQFLAGQQVNPTKALCNIVNNKMVHFDLLHEDVSLQYFIPALS
Regarding B1, the binding result in experiment [1] was “no binding”.

B2: human RAD1, yeast two-hybrid fusion (protein, UniProt O60671 1-282)
chain: MPLLTQQIQDEDDQYSLVASLDNVRNLSTILKAIHFREHATCFATKNGIKVTVENAKCVQANAFIQAGIFQEFKVQEESVTFRINLTVLLDCLSIFGSSPMPGTLTALRMCYQGYGYPLMLFLEEGGVVTVCKINTQEPEETLDFDFCSTNVINKIILQSEGLREAFSELDMTSEVLQITMSPDKPYFRLSTFGNAGSSHLDYPKDSDLMEAFHCNQTQVNRYKISLLKPSTKALVLSCKVSIRTDNRGFLSLQYMIRNEDGQICFVEYYCCPDEEVPESES
Turning to B2, the binding result in experiment [2] is “binds”; in experiment [1], “no binding”.
